Experimental data: ChEMBL document CHEMBL4316593 (Eur J Med Chem, 2019)
This continues a long series; more values of the same kind are listed elsewhere.

Experiments:
Format in all cases: cell-based
Conditions in all cases: U-87MG ATCC
[1] = Inhibition of RTK/PI3K/AKT/mTOR signaling in human U87 cells assessed as down regulation of RBM14 gene expression at cytotoxic IC50 measured after 48 hrs relative to control
[2] = Inhibition of RTK/PI3K/AKT/mTOR signaling in human U87 cells assessed as down regulation of BIRC3 gene expression at cytotoxic IC50 measured after 48 hrs relative to control
[3] = Inhibition of RTK/PI3K/AKT/mTOR signaling in human U87 cells assessed as down regulation of ATF7 gene expression at cytotoxic IC50 measured after 48 hrs relative to control
[4] = Inhibition of RTK/PI3K/AKT/mTOR signaling in human U87 cells assessed as down regulation of CSRNP1 gene expression at cytotoxic IC50 measured after 48 hrs relative to control
[5] = Inhibition of RTK/PI3K/AKT/mTOR signaling in human U87 cells assessed as down regulation of BAK1 gene expression at cytotoxic IC50 measured after 48 hrs relative to control
[6] = Inhibition of RTK/PI3K/AKT/mTOR signaling in human U87 cells assessed as down regulation of PBX3 gene expression at cytotoxic IC50 measured after 48 hrs relative to control
[7] = Inhibition of RTK/PI3K/AKT/mTOR signaling in human U87 cells assessed as down regulation of KLHL11 gene expression at cytotoxic IC50 measured after 48 hrs relative to control
[8] = Inhibition of RTK/PI3K/AKT/mTOR signaling in human U87 cells assessed as down regulation of SBDS gene expression at cytotoxic IC50 measured after 48 hrs relative to control
[9] = Inhibition of RTK/PI3K/AKT/mTOR signaling in human U87 cells assessed as down regulation of ABHD2 gene expression at cytotoxic IC50 measured after 48 hrs relative to control
[10] = Inhibition of RTK/PI3K/AKT/mTOR signaling in human U87 cells assessed as down regulation of CDC37L1 gene expression at cytotoxic IC50 measured after 48 hrs relative to control
[11] = Inhibition of RTK/PI3K/AKT/mTOR signaling in human U87 cells assessed as down regulation of AKR7A2 gene expression at cytotoxic IC50 measured after 48 hrs relative to control
[12] = Inhibition of RTK/PI3K/AKT/mTOR signaling in human U87 cells assessed as down regulation of CHPF gene expression at cytotoxic IC50 measured after 48 hrs relative to control
[13] = Inhibition of RTK/PI3K/AKT/mTOR signaling in human U87 cells assessed as down regulation of LSM3 gene expression at cytotoxic IC50 measured after 48 hrs relative to control
[14] = Inhibition of RTK/PI3K/AKT/mTOR signaling in human U87 cells assessed as down regulation of KDM7A gene expression at cytotoxic IC50 measured after 48 hrs relative to control
[15] = Inhibition of RTK/PI3K/AKT/mTOR signaling in human U87 cells assessed as down regulation of TRA2B gene expression at cytotoxic IC50 measured after 48 hrs relative to control
[16] = Inhibition of RTK/PI3K/AKT/mTOR signaling in human U87 cells assessed as down regulation of IRF6 gene expression at cytotoxic IC50 measured after 48 hrs relative to control
[17] = Inhibition of RTK/PI3K/AKT/mTOR signaling in human U87 cells assessed as down regulation of MYO9B gene expression at cytotoxic IC50 measured after 48 hrs relative to control
[18] = Inhibition of RTK/PI3K/AKT/mTOR signaling in human U87 cells assessed as down regulation of ZNF451 gene expression at cytotoxic IC50 measured after 48 hrs relative to control
[19] = Inhibition of RTK/PI3K/AKT/mTOR signaling in human U87 cells assessed as down regulation of RALBP1 gene expression at cytotoxic IC50 measured after 48 hrs relative to control
[20] = Inhibition of RTK/PI3K/AKT/mTOR signaling in human U87 cells assessed as up regulation of retinoic acid receptor gamma gene expression at cytotoxic IC50 measured after 48 hrs relative to control
[21] = Inhibition of RTK/PI3K/AKT/mTOR signaling in human U87 cells assessed as up regulation of stathmin 3 gene expression at cytotoxic IC50 measured after 48 hrs relative to control
[22] = Inhibition of RTK/PI3K/AKT/mTOR signaling in human U87 cells assessed as up regulation of signal transducer and activator of transcription 6 gene expression at cytotoxic IC50 measured after 48 hrs relative to control
[23] = Inhibition of RTK/PI3K/AKT/mTOR signaling in human U87 cells assessed as up regulation of alanyl-tRNA synthetase gene expression at cytotoxic IC50 measured after 48 hrs relative to control
[24] = Inhibition of RTK/PI3K/AKT/mTOR signaling in human U87 cells assessed as up regulation of claudin 7 gene expression at cytotoxic IC50 measured after 48 hrs relative to control
[25] = Inhibition of RTK/PI3K/AKT/mTOR signaling in human U87 cells assessed as up regulation of ATP synthase F0 subunit 6 gene expression at cytotoxic IC50 measured after 48 hrs relative to control
[26] = Inhibition of RTK/PI3K/AKT/mTOR signaling in human U87 cells assessed as up regulation of lipopolysaccharide induced TNF factor gene expression at cytotoxic IC50 measured after 48 hrs relative to control
[27] = Inhibition of RTK/PI3K/AKT/mTOR signaling in human U87 cells assessed as up regulation of chromosome 19 open reading frame 48 gene expression at cytotoxic IC50 measured after 48 hrs relative to control
[28] = Inhibition of RTK/PI3K/AKT/mTOR signaling in human U87 cells assessed as up regulation of hexose-6-phosphate dehydrogenase/glucose 1-dehydrogenase gene expression at cytotoxic IC50 measured after 48 hrs relative to control
[29] = Inhibition of RTK/PI3K/AKT/mTOR signaling in human U87 cells assessed as up regulation of C6orf48 gene expression at cytotoxic IC50 measured after 48 hrs relative to control
[30] = Inhibition of RTK/PI3K/AKT/mTOR signaling in human U87 cells assessed as up regulation of SLC39A7 gene expression at cytotoxic IC50 measured after 48 hrs relative to control
[31] = Inhibition of RTK/PI3K/AKT/mTOR signaling in human U87 cells assessed as up regulation of NUDT21 gene expression at cytotoxic IC50 measured after 48 hrs relative to control
[32] = Inhibition of RTK/PI3K/AKT/mTOR signaling in human U87 cells assessed as up regulation of PRKDC gene expression at cytotoxic IC50 measured after 48 hrs relative to control

CC(=O)C(=NNc1ccccc1C#N)C(C)=O
log2FC [1]: -2.18 | log2FC [2]: -1.65 | log2FC [3]: -1.34 | log2FC [4]: -1.25 | log2FC [5]: -1.19 | log2FC [6]: -1.09 | log2FC [7]: -1.03 | log2FC [8]: -0.993 | log2FC [9]: -0.937 | log2FC [10]: -0.871 | log2FC [11]: -0.863 | log2FC [12]: -0.847 | log2FC [13]: -0.842 | log2FC [14]: -0.842 | log2FC [15]: -0.781 | log2FC [16]: -0.635 | log2FC [17]: -0.578 | log2FC [18]: -0.543 | log2FC [19]: -0.415 | log2FC [20]: 1.46 | log2FC [21]: 1.36 | log2FC [22]: 1.08 | log2FC [23]: 0.955 | log2FC [24]: 0.93 | log2FC [25]: 0.927 | log2FC [26]: 0.77 | log2FC [27]: 0.704 | log2FC [28]: 0.666 | log2FC [29]: 0.605 | log2FC [30]: 0.574 | log2FC [31]: 0.557 | log2FC [32]: 0.376
